Measurements as given in PubChem BioAssay AID651660 (Broad Institute, 2012).
“And” between values parts separate entries of the source, which are not always exact repeats. Equal values may be shown once. About 15 (0.8%) of roughly 1,900 compounds were called active.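 The calls were made as follows: active = every replicate shows at least 50% inhibition; inconclusive = mean inhibition at least 50% but some replicate below; inactive = the rest.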 The list shows a part of the results.

Amino acid sequences for entries named in this document (tags omitted). A change or cut given only in a name is not applied to a line headed by its entry.
UniProt P43351: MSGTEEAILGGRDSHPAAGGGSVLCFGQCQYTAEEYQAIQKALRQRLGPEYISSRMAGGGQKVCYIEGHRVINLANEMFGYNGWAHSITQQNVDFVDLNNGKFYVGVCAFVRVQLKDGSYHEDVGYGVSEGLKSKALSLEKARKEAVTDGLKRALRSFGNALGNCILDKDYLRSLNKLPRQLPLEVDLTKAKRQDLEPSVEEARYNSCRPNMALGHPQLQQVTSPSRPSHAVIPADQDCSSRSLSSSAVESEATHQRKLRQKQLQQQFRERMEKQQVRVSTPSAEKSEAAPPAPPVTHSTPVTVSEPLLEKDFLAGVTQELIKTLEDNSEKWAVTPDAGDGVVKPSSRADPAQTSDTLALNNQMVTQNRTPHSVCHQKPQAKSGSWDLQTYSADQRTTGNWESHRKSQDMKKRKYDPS

Each molecule was assayed against DNA repair protein RAD52 homolog (Homo sapiens) (UniProt P43351) (assay: RAD52 ssDNA annealing inhibitors, primary screen, biochemical, FRET, single point (AID 651660;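 also: 0% = median of neutral control wells and 100% = median of positive control wells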)). Conditions: Recombinant RAD52 ssDNA annealing, FRET fluorescence, 30 min; at 18.7 µM; stronger effect = higher value.

inhibition, inactive:
CCCCOc1cc(C(=O)NCCN(CC)CC)c2ccccc2n1 8.91% and -1.38%, c1cc(-c2ccncc2)ccn1 5.07%, C(=C\c1ccc2ccccc2n1)/c1ccccc1 3.46%, O=C(Oc1ccc2c3c(c(=O)oc2c1)CCCC3)c1ccco1 -7.43%, Cc1csc(CCc2nc(C)cs2)n1 4.78%, COc1ccc(-c2c(C)c3ccc(OCC(C)=O)cc3oc2=O)cc1 -13.6%, O=C(/C=C/c1ccc2c(c1)OCO2)NCc1ccc(F)cc1 -7.5%, COc1ccc(-c2cc(C(=O)N3CCOCC3)c3cc(C)ccc3n2)cc1 -12%, CN1CC2CCCC3(C1)C(=O)NC1(CCCCC1)N=C23 (centres undefined) -2.27%, COc1ccc(C)cc1S(=O)(=O)Nc1ccc(F)cc1 -3.15%, CC(NC(=O)c1ccc(OC2CCN(Cc3ccccn3)CC2)cc1)c1ccccc1 (centres undefined) -21.4%, CC(C)=CCCC(C)CN1CCC(N2CCC(C(=O)N3CCCC3)CC2)CC1 (centres undefined) -64.5%, COC(=O)c1ccc(NC(=O)C23CCC(C)(C(=O)O2)C3(C)C)cc1 (centres undefined) -12%, C[C@]12CC[C@@H]3c4ccc(O)cc4CC[C@H]3[C@@H]1CCC2=O 1.38%, O=C(OCCN1CCCC1)C1(c2ccccc2)CCCC1 -5.14%, CN=C1c2cc3cc(OC)ccc3n2CCN1C 14.8%, OC(C#CCN1CCCC1)(c1ccccc1)c1cccnc1 (centres undefined) -0.126%, COC1CCCCC1Nc1ccc(C)c(C)c1 (centres undefined) -29.2%, Cc1cccc(CN2CCN(C(c3ccccc3)c3ccc(Cl)cc3)CC2)c1 (centres undefined) 11.1%, CC1CNCCN1S(=O)(=O)c1cccc2cnccc12 (centres undefined) -2.88%, COCCn1c(/C=C/c2ccccc2)nc2ccccc21 2.84%, CCOC(=O)C1=C[C@]2(CC)CCCN3CCc4c(n1c1ccccc41)[C@@H]32 -35.6%, COc1ccccc1C(O)c1nccn1C (centres undefined) 0.191%, COc1ccc2c(c1)[N+](C)(C)C(C)(C)C=C2C 2.05%, C#CCN1C(=O)C(O)(c2c(C)[nH]c3ccccc23)c2ccccc21 (centres undefined) -11.1%, c1ccc2[nH]c(-c3cscn3)nc2c1 2.21%, CN1[C@@H](CC(=O)c2ccccc2)CCC[C@H]1C[C@H](O)c1ccccc1 -0.491%, CC1=NN(C(=O)c2ccc(Br)cc2)C(O)(c2ccccc2)C1 (centres undefined) 0.893%, CCC(C)NCCOCCOc1ccc(Cl)cc1Br (centres undefined) 9.51%, COc1cc(NC(=S)NN2CCN(C)CC2)cc(OC)c1OC -4.66%, CC12CC(c3ccccc3O1)C(C(=O)N1CCOCC1)C(=O)N2 (centres undefined) 2.26%, O=C(OCCNC(=O)c1ccc2ccccc2n1)c1ccc(F)cc1 3.05%, O=C(c1ccc(Cl)cc1)C1CCCN(Cc2ccc(Oc3ncccn3)cc2)C1 (centres undefined) 1.51%, COc1ccc(C2C3=C(CC(C)(C)CC3=O)N(C)C3=C2C(=O)CC(C)(C)C3)cc1 -13.9%, Cc1c(NC(=O)c2cccs2)cccc1[N+](=O)[O-] 0.122%, Cc1nc2cc3ccccc3cc2c(=O)[nH]1 -5.13%, COc1cccc(CN2C(=O)N(C(C)C)C(N(O)C(=O)NC(C)C)C2(C)C)c1OC (centres undefined) 2.14%, C#CCN(C)CCCOc1ccc(Cl)cc1Cl 7.83%, Cn1c(=O)c2c(ncn2CCO)n(C)c1=O -12.2%, COc1ccc(-n2cc(CNCc3cccnc3)c(-c3cccc(F)c3)n2)cc1 28.8%, COc1ccc2c(c1)[nH]c1c(=O)n(Cc3ccccn3)cnc12 2.57%, CC1(C)CC(=O)c2cnc(NC(=O)C3CCCC3)nc2C1 0.741%, Cn1c(=O)[nH]c(=O)c2c1nc(NCc1ccco1)n2CCCc1ccccc1 -5.64%, Cc1ccc2c(c1)C(O)(CC(=O)/C=C/C=C/c1ccccc1)C(=O)N2 (centres undefined) -10.7%, CCCCC/C=C\C[C@H](O)/C=C/c1cccc(C[C@H](O)CCCCO)n1 -31.2%, COc1ccccc1OCC(=O)O 5.53%, Cc1cc(=O)c2c(O)c(O)ccc2o1 -11.5%, CC1(C)S[C@@H]2[C@H](NC(=O)Cc3ccccc3)C(=O)N2[C@H]1C(=O)O 5.89%, CCCCCCCC(=O)OCC(=O)[C@@]1(O)CC[C@H]2[C@@H]3CCC4=CC(=O)CC[C@]4(C)[C@H]3[C@@H](O)C[C@@]21C -3.41%, COc1cc(OC)c(-c2nc3cnccc3n2C)cc1OC -3.52%, O=C1CC(c2ccc(F)cc2)Cc2nc(NCC3CCCO3)ncc21 (centres undefined) -1.18%, CNCCCN1c2ccccc2CCc2ccccc21 -18.4%, C[n+]1ccccc1/C=N/O -4.99% and -10.2%, COc1ccc(CN2CCCCC2C(=O)Nc2ccc(OC)c(OCC(C)C)c2)cc1OC (centres undefined) -5.32%, CCC(C)n1ncn(-c2ccc(N3CCN(c4ccc(OCC5COC(Cn6cncn6)(c6ccc(Cl)cc6Cl)O5)cc4)CC3)cc2)c1=O (centres undefined) -0.796%, Cc1cccc(Nc2ccccc2C(=O)O)c1C -13.3%, CCOc1ncnc2c1[nH]c1ccccc12 2.77%, CN(C)C(=O)Oc1cccc([N+](C)(C)C)c1 -2.12% and -7.4%, CN1CCC(OC(c2ccccc2)c2ccccc2)CC1 1.95%, CC12CN3CC(C)(CN(C1)C3c1ccc(Cl)cc1Cl)C2=O (centres undefined) -9.22%, Cc1cc(O)c(C(=O)Cc2csc(C)n2)c(O)c1 0.256%, O=c1[nH]cnc2[nH]ncc12 -2.05%, NC(CO)C(=O)NNCc1ccc(O)c(O)c1O (centres undefined) 20.8%, CN(C)CCCN1c2ccccc2CCc2ccccc21 -3.5%
